Data taken from patent US11814444B2 (Ra Pharmaceuticals, Inc., priority 2018, dated 2023).

Experiment: general procedure: Fmoc solid-phase peptide synthesis; PS Rink-Amide MBHA resin; DIC / Oxyma Pure
Details: whole synthesis, scale 0.250 mmol

Q: For Example 3 Int-A, which crude mass is on record?
A: Its crude mass is 399 mg.

Q: For Example 4 Int-A, which crude mass is on record?
A: The crude mass was 300 mg.
